This is one part of the list.
Columns and labels:
Assay in all cases: log2 fold change, soluble protein after heating vs DMSO (PISA); higher = thermal stabilisation; K562 lysate, 10 uM; active = over 0.2 and 3.5 SD of the protein, either way, in both replicates (recomputed)
[1] = compound: CS(=O)(=O)CCNCc1ccc(-c2ccc3ncnc(Nc4ccc(OCc5cccc(F)c5)c(Cl)c4)c3c2)o1 [lapatinib]
How it was run: (§1)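 Values give the log-two fold change in thermal stability against solvent controls, from duplicates. Crude K562 extract at 1 mg/mL protein, made by dounce homogenisation in PBS pH 7.4 with 1 mM MgCl2, was treated with 10 μM compound for 30 min. After 3 min heating across 48°C-58°C, aliquots were pooled, adjusted to 0.5% NP-40 at 4°C and centrifuged at 21,000xg for 90 min. The supernatant was measured by TMTpro 16plex LC-MS/MS with channel sums equalised.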

By UniProt entry, the sequences of proteins in these tests, tags left out. Where a name states a change or a piece, a line headed by the entry shows the natural chain unless it says otherwise.
UniProt Q9NZZ3: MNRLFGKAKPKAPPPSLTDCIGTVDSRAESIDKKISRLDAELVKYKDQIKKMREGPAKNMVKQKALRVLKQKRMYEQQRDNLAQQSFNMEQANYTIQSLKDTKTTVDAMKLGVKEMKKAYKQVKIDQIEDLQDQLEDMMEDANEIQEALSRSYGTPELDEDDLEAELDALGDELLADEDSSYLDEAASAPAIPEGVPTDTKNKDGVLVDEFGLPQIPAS
UniProt P06732: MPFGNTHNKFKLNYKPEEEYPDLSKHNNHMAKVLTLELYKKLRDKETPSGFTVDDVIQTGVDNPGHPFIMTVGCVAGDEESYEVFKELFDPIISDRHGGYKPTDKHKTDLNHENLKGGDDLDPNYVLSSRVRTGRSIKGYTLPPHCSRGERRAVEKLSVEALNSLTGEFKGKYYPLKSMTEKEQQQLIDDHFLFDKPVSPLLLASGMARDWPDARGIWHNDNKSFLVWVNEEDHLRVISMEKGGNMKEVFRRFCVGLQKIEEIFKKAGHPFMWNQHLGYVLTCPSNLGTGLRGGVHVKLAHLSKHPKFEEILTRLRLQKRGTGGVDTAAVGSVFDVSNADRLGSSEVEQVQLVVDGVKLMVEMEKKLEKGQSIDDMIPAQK
UniProt Q8TDI0: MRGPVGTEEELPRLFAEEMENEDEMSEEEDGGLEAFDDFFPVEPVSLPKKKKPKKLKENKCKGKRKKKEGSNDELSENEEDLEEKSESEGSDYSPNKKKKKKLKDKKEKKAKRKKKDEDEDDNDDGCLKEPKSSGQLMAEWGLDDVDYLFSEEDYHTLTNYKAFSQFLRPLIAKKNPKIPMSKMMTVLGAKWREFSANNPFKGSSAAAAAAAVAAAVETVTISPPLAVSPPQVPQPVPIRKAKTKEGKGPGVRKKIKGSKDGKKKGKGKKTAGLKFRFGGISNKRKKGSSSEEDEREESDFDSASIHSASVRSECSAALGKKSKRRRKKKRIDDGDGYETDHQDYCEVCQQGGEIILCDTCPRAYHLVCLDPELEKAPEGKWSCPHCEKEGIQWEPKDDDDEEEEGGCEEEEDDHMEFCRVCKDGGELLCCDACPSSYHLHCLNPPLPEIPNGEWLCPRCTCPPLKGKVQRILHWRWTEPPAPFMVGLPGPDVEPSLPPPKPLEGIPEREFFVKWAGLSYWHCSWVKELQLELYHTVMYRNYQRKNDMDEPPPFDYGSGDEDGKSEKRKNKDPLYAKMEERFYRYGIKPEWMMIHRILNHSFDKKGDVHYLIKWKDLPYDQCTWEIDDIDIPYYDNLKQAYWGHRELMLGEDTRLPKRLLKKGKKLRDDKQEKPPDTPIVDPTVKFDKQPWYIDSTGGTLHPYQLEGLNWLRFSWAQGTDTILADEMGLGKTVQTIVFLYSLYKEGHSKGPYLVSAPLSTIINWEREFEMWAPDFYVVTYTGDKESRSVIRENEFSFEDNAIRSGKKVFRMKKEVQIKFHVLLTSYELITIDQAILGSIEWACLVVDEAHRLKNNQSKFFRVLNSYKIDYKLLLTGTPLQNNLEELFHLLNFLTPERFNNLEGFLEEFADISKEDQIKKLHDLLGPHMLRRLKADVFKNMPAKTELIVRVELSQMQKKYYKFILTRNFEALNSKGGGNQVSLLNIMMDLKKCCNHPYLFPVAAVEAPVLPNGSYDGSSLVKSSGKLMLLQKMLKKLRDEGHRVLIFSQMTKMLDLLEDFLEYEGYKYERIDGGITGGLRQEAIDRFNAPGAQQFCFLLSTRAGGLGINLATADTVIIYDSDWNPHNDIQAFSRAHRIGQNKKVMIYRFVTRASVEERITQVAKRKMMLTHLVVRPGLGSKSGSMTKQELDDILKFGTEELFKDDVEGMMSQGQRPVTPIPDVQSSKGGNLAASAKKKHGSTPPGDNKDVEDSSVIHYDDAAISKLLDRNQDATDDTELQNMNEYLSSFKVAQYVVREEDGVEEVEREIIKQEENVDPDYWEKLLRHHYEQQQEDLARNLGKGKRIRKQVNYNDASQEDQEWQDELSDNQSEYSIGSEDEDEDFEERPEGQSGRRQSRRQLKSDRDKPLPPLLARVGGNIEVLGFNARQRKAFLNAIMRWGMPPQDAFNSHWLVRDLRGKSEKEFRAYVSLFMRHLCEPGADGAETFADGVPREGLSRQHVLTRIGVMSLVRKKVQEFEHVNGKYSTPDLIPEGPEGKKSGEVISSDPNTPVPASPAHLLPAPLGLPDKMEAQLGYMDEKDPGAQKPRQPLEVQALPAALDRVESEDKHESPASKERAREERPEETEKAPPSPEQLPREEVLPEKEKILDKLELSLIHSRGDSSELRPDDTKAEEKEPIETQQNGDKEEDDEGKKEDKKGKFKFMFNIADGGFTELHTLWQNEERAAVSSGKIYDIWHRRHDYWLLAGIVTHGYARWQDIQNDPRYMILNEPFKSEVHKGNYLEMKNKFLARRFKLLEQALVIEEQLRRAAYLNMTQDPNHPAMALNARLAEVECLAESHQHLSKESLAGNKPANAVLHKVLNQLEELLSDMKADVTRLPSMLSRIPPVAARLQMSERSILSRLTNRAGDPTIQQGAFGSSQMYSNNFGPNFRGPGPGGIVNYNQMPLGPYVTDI
UniProt Q8N1G2: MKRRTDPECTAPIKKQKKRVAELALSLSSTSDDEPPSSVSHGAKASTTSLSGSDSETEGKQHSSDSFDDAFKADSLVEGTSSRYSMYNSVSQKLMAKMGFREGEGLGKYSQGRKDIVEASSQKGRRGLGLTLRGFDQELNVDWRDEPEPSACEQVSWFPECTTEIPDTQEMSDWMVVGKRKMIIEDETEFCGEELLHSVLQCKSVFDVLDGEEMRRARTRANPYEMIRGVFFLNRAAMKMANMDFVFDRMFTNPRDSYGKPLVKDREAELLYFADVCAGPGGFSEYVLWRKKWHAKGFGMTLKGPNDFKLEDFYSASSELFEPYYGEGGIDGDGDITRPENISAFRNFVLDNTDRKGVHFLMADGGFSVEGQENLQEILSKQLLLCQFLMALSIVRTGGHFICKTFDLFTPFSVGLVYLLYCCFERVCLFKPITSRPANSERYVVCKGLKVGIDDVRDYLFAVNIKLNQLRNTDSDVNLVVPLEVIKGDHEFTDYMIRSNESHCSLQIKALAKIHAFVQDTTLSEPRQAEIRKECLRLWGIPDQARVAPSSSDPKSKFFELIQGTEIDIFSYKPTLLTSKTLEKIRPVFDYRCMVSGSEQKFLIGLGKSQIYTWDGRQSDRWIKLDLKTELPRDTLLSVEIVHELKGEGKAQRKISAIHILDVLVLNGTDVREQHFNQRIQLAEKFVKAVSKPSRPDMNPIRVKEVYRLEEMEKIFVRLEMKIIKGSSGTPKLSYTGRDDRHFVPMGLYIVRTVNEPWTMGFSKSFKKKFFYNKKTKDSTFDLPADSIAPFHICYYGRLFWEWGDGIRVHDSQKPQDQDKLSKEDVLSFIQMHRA
UniProt Q14011: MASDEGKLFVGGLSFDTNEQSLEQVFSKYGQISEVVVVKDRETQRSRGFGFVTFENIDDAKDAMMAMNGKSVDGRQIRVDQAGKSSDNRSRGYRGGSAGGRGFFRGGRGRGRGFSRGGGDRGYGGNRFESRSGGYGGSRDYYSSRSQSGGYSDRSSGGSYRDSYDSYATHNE
UniProt Q9BY43: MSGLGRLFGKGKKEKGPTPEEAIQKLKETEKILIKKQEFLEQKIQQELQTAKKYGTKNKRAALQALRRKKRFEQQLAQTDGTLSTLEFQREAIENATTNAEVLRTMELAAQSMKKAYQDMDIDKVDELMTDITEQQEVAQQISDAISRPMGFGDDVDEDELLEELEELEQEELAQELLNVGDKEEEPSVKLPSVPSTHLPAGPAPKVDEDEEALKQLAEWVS
UniProt Q6FI81: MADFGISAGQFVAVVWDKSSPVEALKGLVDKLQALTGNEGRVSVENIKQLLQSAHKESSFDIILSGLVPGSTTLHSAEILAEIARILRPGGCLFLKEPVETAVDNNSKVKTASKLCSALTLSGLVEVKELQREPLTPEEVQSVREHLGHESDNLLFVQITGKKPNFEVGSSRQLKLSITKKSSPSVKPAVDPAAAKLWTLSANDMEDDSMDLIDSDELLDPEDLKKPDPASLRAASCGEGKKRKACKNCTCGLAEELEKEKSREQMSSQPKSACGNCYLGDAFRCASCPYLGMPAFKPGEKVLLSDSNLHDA
UniProt Q9UHD1: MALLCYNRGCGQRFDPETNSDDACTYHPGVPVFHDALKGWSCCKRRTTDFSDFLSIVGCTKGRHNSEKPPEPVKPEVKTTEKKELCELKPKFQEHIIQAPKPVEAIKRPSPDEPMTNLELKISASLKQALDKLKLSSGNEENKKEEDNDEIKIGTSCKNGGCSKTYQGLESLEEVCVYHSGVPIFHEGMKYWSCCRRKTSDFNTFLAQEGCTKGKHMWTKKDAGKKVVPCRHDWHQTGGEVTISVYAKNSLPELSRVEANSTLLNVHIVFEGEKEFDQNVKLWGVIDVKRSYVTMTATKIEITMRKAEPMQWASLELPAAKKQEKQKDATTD
UniProt Q8WUH1: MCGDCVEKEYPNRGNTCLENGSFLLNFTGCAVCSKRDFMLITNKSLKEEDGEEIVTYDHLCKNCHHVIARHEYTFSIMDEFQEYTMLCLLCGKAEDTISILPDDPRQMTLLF
UniProt Q9Y259: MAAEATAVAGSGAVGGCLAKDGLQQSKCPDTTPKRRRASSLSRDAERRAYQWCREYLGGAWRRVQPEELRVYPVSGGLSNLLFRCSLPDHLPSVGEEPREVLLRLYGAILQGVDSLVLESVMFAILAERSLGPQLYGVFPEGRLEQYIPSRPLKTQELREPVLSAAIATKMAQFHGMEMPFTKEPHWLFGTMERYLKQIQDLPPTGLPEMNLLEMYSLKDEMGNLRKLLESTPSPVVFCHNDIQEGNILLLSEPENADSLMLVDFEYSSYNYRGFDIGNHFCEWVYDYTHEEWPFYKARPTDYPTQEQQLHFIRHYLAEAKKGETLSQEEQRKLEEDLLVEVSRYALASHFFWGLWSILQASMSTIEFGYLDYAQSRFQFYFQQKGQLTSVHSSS
UniProt Q07065: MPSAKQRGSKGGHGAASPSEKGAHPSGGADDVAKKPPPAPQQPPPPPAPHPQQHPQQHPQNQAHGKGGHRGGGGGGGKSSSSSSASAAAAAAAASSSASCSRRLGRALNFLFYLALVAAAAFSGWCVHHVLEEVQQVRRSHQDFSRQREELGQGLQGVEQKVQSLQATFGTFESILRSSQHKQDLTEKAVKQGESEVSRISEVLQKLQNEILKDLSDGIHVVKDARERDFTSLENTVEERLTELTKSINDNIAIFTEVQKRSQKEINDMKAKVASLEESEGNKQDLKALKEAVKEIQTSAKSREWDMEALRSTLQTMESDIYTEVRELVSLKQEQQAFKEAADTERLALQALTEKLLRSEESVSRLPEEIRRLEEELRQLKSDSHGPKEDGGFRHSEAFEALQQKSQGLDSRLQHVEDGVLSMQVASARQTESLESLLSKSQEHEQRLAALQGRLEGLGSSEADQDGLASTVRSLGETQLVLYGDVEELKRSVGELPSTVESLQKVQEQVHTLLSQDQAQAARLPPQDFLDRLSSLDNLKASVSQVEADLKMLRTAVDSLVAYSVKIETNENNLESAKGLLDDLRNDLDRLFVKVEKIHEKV
UniProt Q9H5X1: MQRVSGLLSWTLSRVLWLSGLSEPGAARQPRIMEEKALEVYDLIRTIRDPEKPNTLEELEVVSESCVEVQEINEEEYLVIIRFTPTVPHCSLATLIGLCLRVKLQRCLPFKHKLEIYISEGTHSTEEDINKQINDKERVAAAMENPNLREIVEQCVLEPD
UniProt O43633: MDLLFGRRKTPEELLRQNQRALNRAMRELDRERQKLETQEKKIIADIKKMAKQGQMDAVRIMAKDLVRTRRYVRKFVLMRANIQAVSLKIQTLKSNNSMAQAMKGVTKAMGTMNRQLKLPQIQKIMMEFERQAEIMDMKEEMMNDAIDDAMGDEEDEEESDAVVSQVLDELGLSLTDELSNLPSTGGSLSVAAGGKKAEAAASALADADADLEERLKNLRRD
UniProt O96017, whole entry, looked up: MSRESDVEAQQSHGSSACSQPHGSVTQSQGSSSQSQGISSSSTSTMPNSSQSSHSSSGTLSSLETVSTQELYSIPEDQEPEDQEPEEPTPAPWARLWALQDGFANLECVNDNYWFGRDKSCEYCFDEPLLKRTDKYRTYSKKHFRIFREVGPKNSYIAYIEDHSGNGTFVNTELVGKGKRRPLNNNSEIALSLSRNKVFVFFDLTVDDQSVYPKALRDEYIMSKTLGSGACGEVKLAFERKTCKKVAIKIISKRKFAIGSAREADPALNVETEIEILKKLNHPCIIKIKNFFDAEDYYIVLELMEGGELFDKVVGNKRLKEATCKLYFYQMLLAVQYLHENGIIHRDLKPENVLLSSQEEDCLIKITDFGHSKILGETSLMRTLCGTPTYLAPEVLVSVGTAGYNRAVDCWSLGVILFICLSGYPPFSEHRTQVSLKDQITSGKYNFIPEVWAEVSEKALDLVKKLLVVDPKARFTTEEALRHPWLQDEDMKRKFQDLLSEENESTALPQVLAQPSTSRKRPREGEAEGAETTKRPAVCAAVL

[2] = compound: CS(=O)(=O)N1CCN(Cc2cc3nc(-c4cccc5[nH]ncc45)nc(N4CCOCC4)c3s2)CC1 [pictilisib]
How it was run: as §1

[3] = compound: C[C@@H](Oc1cc(-c2cnn(C3CCNCC3)c2)cnc1N)c1c(Cl)ccc(F)c1Cl [crizotinib]
How it was run: as §1

[4] = compound: C[C@H](C1=CC=C(C=C1)C(=O)NC2=C3C=CNC3=NC=C2)N
How it was run: as §1

[5] = compound: C[C@H](Nc1ncnc2nc[nH]c12)c1cc2cccc(Cl)c2c(=O)n1-c1ccccc1 [duvelisib]
How it was run: as §1

[6] = compound: Cc1cc(Nc2cc(CN3CCOCC3)c3nc(C)c(Cc4ccc(Cl)cc4F)n3n2)n[nH]1 [gandotinib]
How it was run: as §1

[7] = compound: Cc1cc(Nc2cc(N3CCN(C)CC3)nc(Sc3ccc(NC(=O)C4CC4)cc3)n2)n[nH]1 [tozasertib]
How it was run: as §1

[8] = compound: Cc1ccc(-n2nc(C(C)(C)C)cc2NC(=O)Nc2ccc(OCCN3CCOCC3)c3ccccc23)cc1 [doramapimod]
How it was run: as §1

[9] = compound: Cc1ccc(NC(=O)c2ccc(CN3CC[C@H](N(C)C)C3)c(C(F)(F)F)c2)cc1Nc1nccc(-c2cncnc2)n1 [bafetinib]
How it was run: as §1

[10] = compound: Cc1cccc(CC(=O)N2CCc3c2ccc(-c2cn(C)c4ncnc(N)c24)c3F)n1
How it was run: as §1

Target | log2 fold change [1] | log2 fold change [2] | log2 fold change [3] | log2 fold change [4] | log2 fold change [5] | log2 fold change [6] | log2 fold change [7] | log2 fold change [8] | log2 fold change [9] | log2 fold change [10]
CHMP5 (UniProt Q9NZZ3) | inactive: 0.011 | inactive: 0 | inactive: 0.021 | inactive: -0.037 | inactive: -0.023 | inactive: 0.052 | inactive: 0.037 | inactive: 0.015 | inactive: 0.01 | inactive: 0.003
CKB (UniProt P12277) | inactive: -0.003 | inactive: 0.008 | inactive: -0.02 | inactive: 0.068 | inactive: -0.008 | inactive: -0.069 | inactive: 0 | inactive: -0.017 | inactive: -0.025 | inactive: -0.01
CKM (UniProt P06732) | inactive: -0.041 | inactive: -0.035 | inactive: -0.13 | active: -0.431 | inactive: 0.087 | inactive: 0.096 | inactive: -0.078 | inactive: -0.019 | inactive: -0.023 | inactive: 0.113
CHMP4B (UniProt Q9H444) | inactive: 0.047 | inactive: 0.025 | inactive: 0.132 | inactive: 0.01 | inactive: -0.023 | inactive: 0.008 | inactive: -0.002 | inactive: 0 | inactive: 0.026 | inactive: -0.034
CHD5 (UniProt Q8TDI0) | inactive: 0.028 | inactive: 0.007 | inactive: -0.03 | inactive: 0 | inactive: -0.056 | inactive: 0.001 | inactive: -0.074 | inactive: 0.034 | inactive: -0.042 | inactive: -0.002
CKMT1A (UniProt P12532) | inactive: 0.007 | inactive: 0.042 | inactive: 0.006 | inactive: -0.021 | inactive: 0.041 | inactive: 0.056 | inactive: 0.003 | inactive: -0.02 | inactive: 0.116 | inactive: 0.004
CMTM3 (UniProt Q96MX0) | inactive: -0.027 | inactive: 0.029 | inactive: -0.069 | inactive: 0.023 | inactive: -0.052 | inactive: 0.016 | inactive: 0.042 | inactive: 0.025 | inactive: -0.057 | inactive: -0.059
CHAF1B (UniProt Q13112) | inactive: -0.017 | inactive: -0.011 | inactive: -0.021 | inactive: -0.071 | inactive: 0.005 | inactive: 0.074 | inactive: 0.001 | inactive: 0.037 | inactive: -0.035 | inactive: 0.021
CHCHD2P9 (UniProt Q5T1J5) | inactive: 0.011 | inactive: -0.026 | inactive: 0.092 | inactive: 0 | inactive: 0.073 | inactive: 0.012 | inactive: 0.028 | inactive: -0.005 | inactive: 0.158 | inactive: -0.09
CHTOP isoform 3 (UniProt Q9Y3Y2) | inactive: 0.023 | inactive: 0.002 | inactive: -0.017 | inactive: 0.025 | inactive: -0.403 | inactive: 0.014 | inactive: 0.046 | inactive: -0.013 | inactive: -0.02 | inactive: 0.03
CMTR1 (UniProt Q8N1G2) | inactive: -0.001 | inactive: -0.014 | inactive: -0.045 | inactive: 0.008 | inactive: -0.006 | inactive: -0.072 | inactive: 0.026 | inactive: 0.034 | inactive: -0.077 | inactive: 0.04
CMTM6 (UniProt Q9NX76) | inactive: 0.02 | inactive: 0.009 | inactive: 0.005 | inactive: 0.073 | inactive: -0.016 | inactive: -0.131 | inactive: 0.086 | inactive: -0.017 | inactive: -0.114 | inactive: -0.035
CIB1 (UniProt Q99828) | inactive: -0.073 | inactive: 0.047 | inactive: -0.046 | inactive: 0.023 | inactive: -0.006 | inactive: -0.008 | inactive: 0.06 | inactive: 0.051 | inactive: 0.115 | inactive: 0.059
CMPK2 (UniProt Q5EBM0) | inactive: 0.065 | inactive: 0 | inactive: 0.007 | inactive: -0.074 | inactive: 0.043 | inactive: 0.008 | inactive: 0.018 | inactive: -0.01 | inactive: -0.061 | inactive: 0.056
CIRBP (UniProt Q14011) | inactive: 0.006 | inactive: -0.018 | inactive: 0 | inactive: 0.006 | inactive: 0.018 | inactive: 0.041 | inactive: -0.044 | inactive: -0.025 | inactive: -0.023 | inactive: -0.05
CHAF1A (UniProt Q13111) | inactive: 0.014 | inactive: 0.063 | inactive: 0.012 | inactive: -0.054 | inactive: -0.035 | inactive: 0.009 | inactive: -0.023 | inactive: 0.026 | inactive: -0.075 | inactive: -0.005
CHMP4A isoform 2 (UniProt Q9BY43) | inactive: 0.009 | inactive: 0.022 | inactive: -0.047 | active: -0.227 | inactive: -0.001 | inactive: 0.182 | inactive: -0.01 | inactive: 0.054 | inactive: -0.036 | inactive: 0.18
CHML (UniProt P26374) | inactive: -0.006 | inactive: -0.003 | inactive: 0.022 | inactive: -0.012 | inactive: 0.006 | inactive: 0.013 | inactive: -0.004 | inactive: -0.025 | inactive: 0.094 | inactive: 0.004
CIAPIN1 (UniProt Q6FI81) | inactive: -0.012 | inactive: -0.007 | inactive: 0.025 | inactive: -0.032 | inactive: 0.009 | inactive: 0.032 | inactive: -0.01 | inactive: -0.008 | inactive: 0.001 | inactive: 0.004
CIP2A (UniProt Q8TCG1) | inactive: -0.02 | inactive: -0.045 | inactive: -0.101 | inactive: -0.049 | inactive: 0.012 | inactive: -0.218 | inactive: 0 | inactive: 0.005 | inactive: -0.047 | inactive: 0.103
CHORDC1 (UniProt Q9UHD1) | inactive: -0.001 | inactive: 0.009 | inactive: 0.022 | inactive: 0.18 | inactive: 0.006 | inactive: -0.011 | inactive: 0.022 | inactive: -0.028 | inactive: 0.022 | inactive: -0.031
CHERP (UniProt Q8IWX8) | inactive: 0.034 | inactive: -0.008 | inactive: 0.006 | inactive: 0.02 | inactive: 0 | inactive: -0.026 | inactive: 0.006 | inactive: 0.024 | inactive: 0.001 | inactive: 0.005
CHURC1 isoform 2 (UniProt Q8WUH1) | inactive: 0.012 | inactive: 0.043 | inactive: -0.047 | inactive: 0.026 | inactive: 0.049 | inactive: -0.014 | inactive: -0.032 | inactive: -0.01 | inactive: -0.019 | inactive: -0.001
CHKB (UniProt Q9Y259) | inactive: 0.022 | inactive: -0.002 | inactive: -0.056 | inactive: -0.076 | inactive: -0.015 | inactive: 0.043 | inactive: -0.041 | inactive: 0.019 | inactive: 0.065 | inactive: 0.049
CKAP4 (UniProt Q07065) | inactive: -0.014 | inactive: -0.021 | inactive: 0.083 | inactive: 0.353 | inactive: 0.005 | inactive: 0.224 | inactive: -0.148 | inactive: 0.061 | inactive: 0.082 | inactive: -0.68
CIAO2A (UniProt Q9H5X1) | inactive: 0.007 | inactive: -0.058 | inactive: -0.014 | inactive: 0.181 | inactive: -0.01 | inactive: 0 | inactive: 0.042 | inactive: 0.11 | inactive: -0.015 | active: -0.276
CHMP2A (UniProt O43633) | inactive: 0.013 | inactive: 0.033 | inactive: -0.01 | inactive: -0.059 | inactive: -0.003 | inactive: 0.092 | inactive: 0.002 | inactive: 0.001 | inactive: 0.042 | inactive: 0.006
CHD1 (UniProt O14646) | inactive: -0.008 | inactive: -0.068 | inactive: -0.108 | inactive: -0.023 | inactive: 0.014 | inactive: -0.063 | inactive: 0.035 | inactive: 0.044 | inactive: -0.005 | inactive: 0.017
CKMT2 (UniProt P17540) | inactive: -0.025 | inactive: -0.018 | inactive: -0.077 | inactive: -0.096 | inactive: 0.01 | inactive: -0.006 | inactive: -0.021 | inactive: -0.036 | inactive: -0.025 | inactive: 0.021
CHEK2 (UniProt O96017) | inactive: 0.08 | inactive: -0.012 | inactive: 0.069 | inactive: -0.011 | inactive: 0.002 | inactive: -0.019 | inactive: 0.039 | inactive: 0.018 | inactive: -0.046 | inactive: -0.008

Rewritten as comma-separated lines: part of the list above.
Target,log2 fold change [1],log2 fold change [2],log2 fold change [3],log2 fold change [4],log2 fold change [5],log2 fold change [6],log2 fold change [7],log2 fold change [8],log2 fold change [9],log2 fold change [10]
CIAPIN1 (UniProt Q6FI81),inactive: -0.012,inactive: -0.007,inactive: 0.025,inactive: -0.032,inactive: 0.009,inactive: 0.032,inactive: -0.01,inactive: -0.008,inactive: 0.001,inactive: 0.004
CIP2A (UniProt Q8TCG1),inactive: -0.02,inactive: -0.045,inactive: -0.101,inactive: -0.049,inactive: 0.012,inactive: -0.218,inactive: 0,inactive: 0.005,inactive: -0.047,inactive: 0.103
CHORDC1 (UniProt Q9UHD1),inactive: -0.001,inactive: 0.009,inactive: 0.022,inactive: 0.18,inactive: 0.006,inactive: -0.011,inactive: 0.022,inactive: -0.028,inactive: 0.022,inactive: -0.031
CHERP (UniProt Q8IWX8),inactive: 0.034,inactive: -0.008,inactive: 0.006,inactive: 0.02,inactive: 0,inactive: -0.026,inactive: 0.006,inactive: 0.024,inactive: 0.001,inactive: 0.005
CHURC1 isoform 2 (UniProt Q8WUH1),inactive: 0.012,inactive: 0.043,inactive: -0.047,inactive: 0.026,inactive: 0.049,inactive: -0.014,inactive: -0.032,inactive: -0.01,inactive: -0.019,inactive: -0.001
CHKB (UniProt Q9Y259),inactive: 0.022,inactive: -0.002,inactive: -0.056,inactive: -0.076,inactive: -0.015,inactive: 0.043,inactive: -0.041,inactive: 0.019,inactive: 0.065,inactive: 0.049
CKAP4 (UniProt Q07065),inactive: -0.014,inactive: -0.021,inactive: 0.083,inactive: 0.353,inactive: 0.005,inactive: 0.224,inactive: -0.148,inactive: 0.061,inactive: 0.082,inactive: -0.68
CIAO2A (UniProt Q9H5X1),inactive: 0.007,inactive: -0.058,inactive: -0.014,inactive: 0.181,inactive: -0.01,inactive: 0,inactive: 0.042,inactive: 0.11,inactive: -0.015,active: -0.276

From the supplement of paper PMC10849652
